US20220298225A1, “METHODS AND COMPOSITIONS FOR TREATING CANCER WITH COLLAGEN BINDING DRUG CARRIERS” (The University of Chicago, priority 2019, published 2022)
The name of at least one read-out is uncertain.

Assay: Plasma pharmacokinetics of DyLight 800 labeled SA and CBD-SA
Type: in vivo, mouse
Details: DyLight 800 label, pH-insensitive linker, 200 μg i.v.

B1: CBD-SA: recombinant mouse serum albumin with VWF A3 collagen binding domain on the N-terminus via (GGGS)2 linker (SEQ ID NO:3) (protein)
chain: CSQPLDVILLLDGSSSFPASYFDEMKSFAKAFISKANIGPRLTQVSVLQYGSITTIDVPWNVVPEKAHLLSLVDVMQREGGPSQIGDALGFAVRYLTSEMHGARPGASKAVVILVTDVSVDSVDAAADAARSNRVTVFPIGIGDRYDAAQLRILAGPAGDSNVVKLQRIEDLPTMVTLGNSFLHKLCSGFVRIGGGSGGGSEAHKSEIAHRYNDLGEQHFKGLVLIAFSQYLQKCSYDEHAKLVQEVTDFAKTCVADESAANCDKSLHTLFGDKLCAIPNLRENYGELADCCTKQEPERNECFLQHKDDNPSLPPFERPEAEAMCTSFKENPTTFMGHYLHEVARRHPYFYAPELLYYAEQYNEILTQCCAEADKESCLTPKLDGVKEKALVSSVRQRMKCSSMQKFGERAFKAWAVARLSQTFPNADFAEITKLATDLTKVNKECCHGDLLECADDRAELAKYMCENQATISSKLQTCCDKPLLKKAHCLSEVEHDTMPADLPAIAADFVEDQEVCKNYAEAKDVFLGTFLYEYSRRHPDYSVSLLLRLAKKYEATLEKCCAEANPPACYGTVLAEFQPLVEEPKNLVKTNCDLYEKLGEYGFQNAILVRYTQKAPQVSTPTLVEAARNLGRVGTKCCTLPEDQRLPCVEDYLSAILNRVCLLHEKTPVSEHVTKCCSGSLVERRPCFSALTVDETYVPKEFKAETFTFHSDICTLPEKEKQIKKQTALAELVKHKPKATAEQLKTVMDDFAQFLDTCCKAADKDTCFSTEGPNLVTRCKDALAHHHHHH
  plasma half-life of protein conjugated with Dox or dye: similar
